Data as given in the supplement of paper PMC3682954.
Several values for one entry are separate records, joined by “and”; a condition that tells them apart may be missing. Equal values may be shown once. Where a name gives a salt, the structure may show the parent alone. ± gives the standard deviation of the averaged measurements. The list shows a part of the results. Repeats are few or missing, and single values can be far off.

System: RAW 264.7
Experiment: cell viability (MTT) relative to vehicle control; higher = more viable cells
Details: stimulus: HMGB1 5 ug/ml, 18 h
[1] = compound concentration: 1 ug/ml

Structure (SMILES)	cell viability [1] [%]	cell viability (compound concentration: 3 uM)
CO[C@@H]1[C@@H](O[C@@H]2O[C@H](C)[C@@H](O[C@H]3C[C@@](C)(O)[C@@H](OC(=O)CC(C)C)[C@H](C)O3)[C@H](N(C)C)[C@H]2O)[C@@H](CC=O)C[C@@H](C)[C@@H](O)/C=C/C=C/C[C@@H](C)OC(=O)C[C@H]1OC(C)=O [Josamycin]	106	111%
Cc1ccc2oc(=O)c(-c3ccc(Cl)cc3)c(C)c2c1 [3(4'-Chlorophenyl)-4,6-dimethylcoumarin]	107	
CSC(=N)NCCC[C@H](N)C(=O)O [S-Methyl-L-thiocitrulline acetate]		104%
O=C(O)[C@@H]1C[C@H](C(=O)O)N1 [cis-Azetidine-2,4-dicarboxylic acid]		113%
CC(=O)OCC(=O)[C@@]12OC(C)(C)O[C@@H]1C[C@H]1[C@@H]3C[C@H](F)C4=CC(=O)C=C[C@]4(C)[C@@]3(F)[C@@H](O)C[C@@]12C [Fluocinonide]		126%
CC(=O)OCC(=O)[C@@]12OC(C)(C)O[C@@H]1C[C@H]1[C@@H]3C[C@H](F)C4=CC(=O)C=C[C@]4(C)[C@@]3(F)[C@@H](O)C[C@@]12C		115%
c1ccc2c(CC3=NCCN3)cccc2c1 [Naphazoline hydrochloride]		99.3 ± 18%
c1ccc2c(CC3=NCCN3)cccc2c1		107%
c1ccc2c(CC3=NCCN3)cccc2c1 [Naphazoline]		101%
CCN(CC)CC(=O)Nc1c(C)cccc1C [Lidocaine hydrochloride]		102%
CCN(CC)CC(=O)Nc1c(C)cccc1C [Lidocaïne hydrochloride]		90.7%
CCN(CC)CC(=O)Nc1c(C)cccc1C		97.6% and 99.6%
CCN(CC)CC(=O)Nc1c(C)cccc1C [Lidocaine]		111%
C=C1CC[C@@H]2[C@](C)(CO)[C@H](O)CC[C@@]2(C)[C@@H]1C/C=C1/C(=O)OC[C@H]1O [Andrographolide]	87.7	
CC(=O)NS(=O)(=O)c1ccc(N)cc1 [Sulfacetamide sodic hydrate]		103%
CC(=O)NS(=O)(=O)c1ccc(N)cc1		100%
Cc1cn([C@H]2C=C[C@@H](CO)O2)c(=O)[nH]c1=O [Stavudine]		89.6%
Cc1cn([C@H]2C=C[C@@H](CO)O2)c(=O)[nH]c1=O		97.2%
CC(=O)OC1CCC2(C)C(CCC3(C)C2C(=O)C=C2C4CC(C)(C(=O)N5CC6CC(C5)c5cccc(=O)n5C6)CCC4(C)CCC23C)C1(C)C (centres undefined)	106	
C=CC1=C(C(=O)O)N2C(=O)[C@@H](NC(=O)/C(=N\O)c3csc(N)n3)[C@H]2SC1 [Cefdinir]		110%
C=CC1=C(C(=O)O)N2C(=O)[C@@H](NC(=O)/C(=N\O)c3csc(N)n3)[C@H]2SC1		104.3 ± 1%
Nc1ncnc2c1nc(Br)n2C1OC2COP(=O)(O)O[C@@H]2C1O (some centres undefined) [8-Bromo-cAMP sodium]		98.6%
OCc1ccccc1O[C@@H]1O[C@H](CO)[C@@H](O)[C@H](O)[C@H]1O		101%
OCc1ccccc1O[C@@H]1O[C@H](CO)[C@@H](O)[C@H](O)[C@H]1O [D(-)-Salicin]	101	

Single entries from above:
For cell viability [1] [%], Cc1ccc2oc(=O)c(-c3ccc(Cl)cc3)c(C)c2c1 [3(4'-Chlorophenyl)-4,6-dimethylcoumarin] shows 107
For cell viability (compound concentration: 3 uM), CCN(CC)CC(=O)Nc1c(C)cccc1C shows 97.6% and 99.6%

Further results follow.

Structure (SMILES)	cell viability [1] [%]	cell viability (compound concentration: 3 uM)
Ic1ccc(N2CCN(Cc3c[nH]c4ncccc34)CC2)cc1 [L-750,667 trihydrochloride]		112%
COc1cccc2c1C(=O)c1c(O)c3c(c(O)c1C2=O)C[C@@](O)(C(C)=O)C[C@@H]3O[C@H]1C[C@H](N)[C@H](O)[C@H](C)O1		2.54 ± 1.4%
COc1cccc2c1C(=O)c1c(O)c3c(c(O)c1C2=O)C[C@@](O)(C(C)=O)C[C@@H]3O[C@H]1C[C@H](N)[C@H](O)[C@H](C)O1 [Daunorubicin]		3.09%
COc1cccc2c1C(=O)c1c(O)c3c(c(O)c1C2=O)C[C@@](O)(C(C)=O)C[C@@H]3O[C@H]1C[C@H](N)[C@H](O)[C@H](C)O1 [Daunorubicin hydrochloride]		2.21%
O=C(Nc1cccc(C(=O)Nc2ccc(S(=O)(=O)O)c3cc(S(=O)(=O)O)cc(S(=O)(=O)O)c23)c1)Nc1cccc(C(=O)Nc2ccc(S(=O)(=O)O)c3cc(S(=O)(=O)O)cc(S(=O)(=O)O)c23)c1		111%
Nc1cc(Cl)c(NC2=NCCN2)c(Cl)c1 [p-Aminoclonidine hydrochloride]		104%
CCN(CC)CCNC(C(=O)OCCC(C)C)c1ccccc1 (centres undefined)		109%
C[C@@H]1C[C@H]2[C@@H]3CCC4=CC(=O)C=C[C@]4(C)[C@@]3(F)[C@@H](O)C[C@]2(C)[C@@]1(O)C(=O)COP(=O)(O)O		108%
CC(=O)OCC(=O)[C@@]1(O)CCC2C3CCC4=CC(=O)C=C[C@]4(C)[C@@]3(F)[C@@H](O)C[C@@]21C (some centres undefined)		123%
O=c1c(O[C@@H]2O[C@H](CO)[C@H](O)[C@H](O)[C@H]2O)c(-c2ccc(O)c(O)c2)oc2cc(O)cc(O)c12		98%
O=c1[nH]c2ccccc2n1CCCN1CCN(C(c2ccccc2)c2ccccc2)CC1 [Oxatomide]		103%
Nc1nc(Cl)nc2c1ncn2[C@@H]1O[C@H](CO)[C@@H](O)[C@H]1O		94.7%
Nc1nc(Cl)nc2c1ncn2[C@@H]1O[C@H](CO)[C@@H](O)[C@H]1O [2-Chloroadenosine]		97.7%
Cc1c(-c2cnccn2)ssc1=S [Oltipraz]		113%
NO [Hydroxylamine hydrochloride]		102%
C(=C\c1ccccc1)/CN1CCN(C(c2ccccc2)c2ccccc2)CC1		94.3%
CN1CCN(C(c2ccccc2)c2ccccc2)CC1 [Cyclizine hydrochloride]		97.8%
CN1CCN(C(c2ccccc2)c2ccccc2)CC1		97.7%
C[C@]12CC[C@@H]3c4ccc(OC(=O)c5ccccc5)cc4CC[C@H]3[C@@H]1CC[C@@H]2O [estradiol benzoate]	104	
C[C@]12CC[C@@H]3c4ccc(OC(=O)c5ccccc5)cc4CC[C@H]3[C@@H]1CC[C@@H]2O		112%
C[N+](C)(C)CC(=O)O [Betaine hydrochloride]		113%
C[N+](C)(C)CC(=O)O		107%
O=C(O)c1ccccc1C(=O)Nc1ccc(S(=O)(=O)Nc2nccs2)cc1 [Phthalylsulfathiazole]		97.9%
O=C(O)c1ccccc1C(=O)Nc1ccc(S(=O)(=O)Nc2nccs2)cc1		98.5%
